Data published in the supplement of paper PMC4604168 (melanoma cell lines).
This is one part of the list. Single values are uncertain, as repeats are few or missing.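 Cells were imaged in 1,536-well plates, and nuclei stained with an antibody against cleaved PARP were counted against all DNA-stained nuclei to give the apoptosis fraction. Screening doses were chosen to leave most cells alive, and resting and induced cleaved-PARP levels differ strongly between cell lines.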

Assays:
Assay in all cases: cleaved PARP positive nuclei fraction relative to DMSO control; melanoma cells; higher = more apoptosis
Details in all cases: library dose: low library concentration; 72 h
[1] = test system: WM115
[2] = test system: WM1716
[3] = test system: WM1745
[4] = test system: WM3526
[5] = test system: WM3619
[6] = test system: WM451Lu

Structure (SMILES) | cleaved PARP positive nuclei fraction [1] | cleaved PARP positive nuclei fraction [2] | cleaved PARP positive nuclei fraction [3] | cleaved PARP positive nuclei fraction [4] | cleaved PARP positive nuclei fraction [5] | cleaved PARP positive nuclei fraction [6]
CC(=O)c1c(C)c2cnc(Nc3ccc(N4CCNCC4)cn3)nc2n(C2CCCC2)c1=O [palbociclib] + Cn1c(Nc2ccc(C(F)(F)F)cc2)nc2cc(Oc3ccnc(-c4ncc(C(F)(F)F)[nH]4)c3)ccc21 [CHIR265] (first compound 0.04 µM, partner dose 0.08 µM) | 441% | 94.9% | 159% | 234% | 136% | 74%
Cc1ccc(NC(=O)c2cccc(N(C)C)c2)cc1NC(=O)c1ccc(O)cc1 + NCC(=O)Nc1ccc(-n2nc(C(F)(F)F)cc2-c2ccc3c(ccc4ccccc43)c2)cc1 [OSU03012] (first compound 2 µM, partner dose 1 µM) | 146% | 141% | 119% | 47.6% | 99.4% | 114%
C=CCn1c(=O)c2cnc(Nc3ccc(N4CCN(C)CC4)cc3)nc2n1-c1cccc(C(C)(C)O)n1 + NCC(=O)Nc1ccc(-n2nc(C(F)(F)F)cc2-c2ccc3c(ccc4ccccc43)c2)cc1 [OSU03012] (first compound 0.02 µM, partner dose 1 µM) | 103% | 197% | 108% | 257% | 148% | 137%
C[C@]1(c2nc3c(C(N)=O)cccc3[nH]2)CCCN1 [Veliparib] + CC(C)CCN1c2nc(Nc3cc(F)c(O)c(F)c3)ncc2N(C)C(=O)C1C [BID1870] (first compound 1.4 µM, partner dose 0.2 µM) | 158% | 101% | 106% | 67.5% | 82.9% | 121%
CC(=O)c1c(C)c2cnc(Nc3ccc(N4CCNCC4)cn3)nc2n(C2CCCC2)c1=O [palbociclib] + Cn1cncc1[C@@](N)(c1ccc(Cl)cc1)c1ccc2c(c1)c(-c1cccc(Cl)c1)cc(=O)n2C [tipifarnib] (first compound 0.04 µM, partner dose 0.01 µM) | 99.4% | 161% | 112% | 90.2% | 168% | 262%
CC(=O)c1c(C)c2cnc(Nc3ccc(N4CCNCC4)cn3)nc2n(C2CCCC2)c1=O [palbociclib] + COc1cc(Nc2ncc(F)c(Nc3ccc4c(n3)NC(=O)C(C)(C)O4)n2)cc(OC)c1OC [Tamatinib] (first compound 0.04 µM, partner dose 0.4 µM) | 236% | 103% | 175% | 58.5% | 123% | 133%
Cc1nc(Nc2ncc(C(=O)Nc3c(C)cccc3Cl)s2)cc(N2CCN(CCO)CC2)n1 [dasatanib] + c1cc(-c2cnn3cc(-c4ccc(OCCN5CCCCC5)cc4)cnc23)ccn1 [Dorsomorphin] (first compound 0.004 µM, partner dose 0.4 µM) | 145% | 210% | 362% | 166% | 113% | 155%
Cn1c(Nc2ccc(C(F)(F)F)cc2)nc2cc(Oc3ccnc(-c4ncc(C(F)(F)F)[nH]4)c3)ccc21 + CC(C)CCN1c2nc(Nc3cc(F)c(O)c(F)c3)ncc2N(C)C(=O)C1C [BID1870] (first compound 0.08 µM, partner dose 0.2 µM) | 595% | 124% | 321% | 137% | 301% | 45.4%
O=C(Nc1cccc(Cl)c1)Nc1ncc(CCNc2ncnc3ccsc23)s1 + O=C(O)c1ccc(-c2c[nH]c3ncc(-c4ccccc4)cc23)cc1C1CCCC1 [GSK650394] (first compound 0.0008 µM, partner dose 0.16 µM) | 59.4% | 106% | 106% | 61.2% | 107% | 50.2%
Cn1c(Nc2ccc(C(F)(F)F)cc2)nc2cc(Oc3ccnc(-c4ncc(C(F)(F)F)[nH]4)c3)ccc21 + CCN(CC)CCCCNc1ncc2cc(-c3cc(OC)cc(OC)c3)c(NC(=O)NC(C)(C)C)nc2n1 [PD173074] (first compound 0.08 µM, partner dose 0.1 µM) | 482% | 126% | 138% | 110% | 141% | 153%
Cn1c(Nc2ccc(C(F)(F)F)cc2)nc2cc(Oc3ccnc(-c4ncc(C(F)(F)F)[nH]4)c3)ccc21 + CCc1ccc(CCOc2ccc(CC3SC(=O)NC3=O)cc2)nc1 [pioglitazone] (first compound 0.08 µM, partner dose 2 µM) | 404% | 172% | 150% | 310% | 106% | 240%
CO[C@@H]1[C@H](N(C)C(=O)c2ccccc2)C[C@H]2O[C@]1(C)n1c3ccccc3c3c4c(c5c6ccccc6n2c5c31)C(=O)NC4 [Midostaurin] + CC(C)(C)c1cnc(CSc2cnc(NC(=O)C3CCNCC3)s2)o1 [SNS-032] (first compound 0.08 µM, partner dose 0.01 µM) | 94.1% | 143% | 110% | 52.9% | 101% | 91.2%
C=CCNC1=C2C[C@@H](C)C[C@H](OC)[C@H](O)[C@@H](C)/C=C(\C)[C@H](OC(N)=O)[C@@H](OC)/C=C\C=C(/C)C(=O)NC(=CC1=O)C2=O [Tanespimycin] + O=C(O)C(=O)Nc1sc2c(c1C(=O)O)CCNC2 [TCS401] (first compound 0.002 µM, partner dose 1.66667 µM) | 125% | 253% | 102% | 165% | 79.1% | 35.2%
Clc1ccc(Nc2nnc(Cc3ccncc3)c3ccccc23)cc1 [vatalanib] + CC(C)(C)c1cnc(CSc2cnc(NC(=O)C3CCNCC3)s2)o1 [SNS-032] (first compound 2 µM, partner dose 0.01 µM) | 146% | 91.6% | 111% | 62.2% | 122% | 54.3%
Cc1nc(Nc2ncc(C(=O)Nc3c(C)cccc3Cl)s2)cc(N2CCN(CCO)CC2)n1 [dasatanib] + O=C(CCCCCCC(=O)Nc1ccccc1)NO [vorinostat] (first compound 0.004 µM, partner dose 0.08 µM) | 74.8% | 147% | 123% | 53.7% | 112% | 220%
CC(=O)c1c(C)c2cnc(Nc3ccc(N4CCNCC4)cn3)nc2n(C2CCCC2)c1=O [palbociclib] + O=S(=O)(c1ccccc1)N(CC(F)(F)F)c1ccc(C(O)(C(F)(F)F)C(F)(F)F)cc1 [T0901317] (first compound 0.04 µM, partner dose 1.4 µM) | 106% | 107% | 138% | 78.1% | 122% | 177%
O=C(Nc1cccc(Cl)c1)Nc1ncc(CCNc2ncnc3ccsc23)s1 + Oc1nc(-c2ccc(C(F)(F)F)cc2)nc2c1CSCC2 [XAV939] (first compound 0.0008 µM, partner dose 2 µM) | 126% | 462% | 131% | 130% | 79.7% | 240%
NC(=O)Nc1cc(-c2cccc(F)c2)sc1C(=O)N[C@H]1CCCNC1 + c1cc(-c2cnn3cc(-c4ccc(OCCN5CCCCC5)cc4)cnc23)ccn1 [Dorsomorphin] (first compound 0.02 µM, partner dose 0.4 µM) | 148% | 70.2% | 113% | 84.5% | 151% | 99.3%
C[C@]1(c2nc3c(C(N)=O)cccc3[nH]2)CCCN1 [Veliparib] + Cn1cncc1[C@@](N)(c1ccc(Cl)cc1)c1ccc2c(c1)c(-c1cccc(Cl)c1)cc(=O)n2C [tipifarnib] (first compound 1.4 µM, partner dose 0.01 µM) | 367% | 70.4% | 119% | 66.5% | 90% | 120%
CC1(C)NC(=O)N(c2ccc([N+](=O)[O-])c(C(F)(F)F)c2)C1=O [nilutamide] + CCc1ccc(CCOc2ccc(CC3SC(=O)NC3=O)cc2)nc1 [pioglitazone] (first compound 1 µM, partner dose 2 µM) | 88.1% | 91.3% | 108% | 70.8% | 110% | 233%
Cn1cncc1[C@@](N)(c1ccc(Cl)cc1)c1ccc2c(c1)c(-c1cccc(Cl)c1)cc(=O)n2C [tipifarnib] + O=C1NC(=O)/C(=C/c2ccc(-c3ccc(F)cc3O)o2)S1 [AS252424] (first compound 0.01 µM, partner dose 1 µM) | 125% | 140% | 88.3% | 81.8% | 275% | 57.2%
Clc1ccc(Nc2nnc(Cc3ccncc3)c3ccccc23)cc1 [vatalanib] + COc1ccc(COc2ccc(Cc3cnc(N)nc3N)cc2OC)cc1 [GW2580] (first compound 2 µM, partner dose 1 µM) | 71.5% | 30.4% | 121% | 143% | 78.9% | 72.4%
Nc1cccc2c1CN(C1CCC(=O)NC1=O)C2=O (stereo unspecified) [lenalidomide] + O=c1cc(-c2cccc3c2Sc2ccccc2S3)oc(N2CCOCC2)c1 [KU55933] (first compound 1 µM, partner dose 1 µM) | 150% | 74.5% | 80.4% | 72% | 63.5% | 228%
Clc1ccc(Nc2nnc(Cc3ccncc3)c3ccccc23)cc1 [vatalanib] + NC(=O)Nc1cc(-c2cccc(F)c2)sc1C(=O)N[C@H]1CCCNC1 [AZD7762] (first compound 2 µM, partner dose 0.02 µM) | 73.4% | 83.3% | 101% | 270% | 130% | 56.6%
C#Cc1cccc(Nc2ncnc3cc(OCCOC)c(OCCOC)cc23)c1 [erlotinib] + O=S(=O)(c1ccccc1)N(CC(F)(F)F)c1ccc(C(O)(C(F)(F)F)C(F)(F)F)cc1 [T0901317] (first compound 0.8 µM, partner dose 1.4 µM) | 195% | 92.1% | 468% | 76.3% | 68.9% | 89.1%
OCc1c[nH]c2ccccc12 [Indole-3-carbinol] + Cn1c(Nc2ccc(C(F)(F)F)cc2)nc2cc(Oc3ccnc(-c4ncc(C(F)(F)F)[nH]4)c3)ccc21 [CHIR265] (first compound 0.8 µM, partner dose 0.08 µM) | 328% | 85.6% | 130% | 115% | 178% | 65.2%

Single records, as listed above.
CC(=O)c1c(C)c2cnc(Nc3ccc(N4CCNCC4)cn3)nc2n(C2CCCC2)c1=O [palbociclib] + Cn1c(Nc2ccc(C(F)(F)F)cc2)nc2cc(Oc3ccnc(-c4ncc(C(F)(F)F)[nH]4)c3)ccc21 [CHIR265] (first compound 0.04 µM, partner dose 0.08 µM) in the list: cleaved PARP positive nuclei fraction [1]: 441%; cleaved PARP positive nuclei fraction [2]: 94.9%; cleaved PARP positive nuclei fraction [3]: 159%; cleaved PARP positive nuclei fraction [4]: 234%; cleaved PARP positive nuclei fraction [5]: 136%; cleaved PARP positive nuclei fraction [6]: 74%
Nc1cccc2c1CN(C1CCC(=O)NC1=O)C2=O (stereo unspecified) [lenalidomide] + O=c1cc(-c2cccc3c2Sc2ccccc2S3)oc(N2CCOCC2)c1 [KU55933] (first compound 1 µM, partner dose 1 µM) in the list: cleaved PARP positive nuclei fraction [1]: 150%; cleaved PARP positive nuclei fraction [2]: 74.5%; cleaved PARP positive nuclei fraction [3]: 80.4%; cleaved PARP positive nuclei fraction [4]: 72%; cleaved PARP positive nuclei fraction [5]: 63.5%; cleaved PARP positive nuclei fraction [6]: 228%
